In PMC11507436:
No constants are given. Whether binding was seen depends on the method and setting. For part of these data: Binding seen in cells or lysates may run through a third protein. Some results given as binding are weak or reduced against the parent protein; the word gives no strength. For part of these data: Sequences can lack the tags named with a protein. Values belong to the binder of their own block, whether it stands above or below them.

Protein sequences, listed by entry. Tags and fused reporters are not part of them. Lines headed by an entry give the natural chain unless they say otherwise; changes in a name come on top.
UniProt P22202: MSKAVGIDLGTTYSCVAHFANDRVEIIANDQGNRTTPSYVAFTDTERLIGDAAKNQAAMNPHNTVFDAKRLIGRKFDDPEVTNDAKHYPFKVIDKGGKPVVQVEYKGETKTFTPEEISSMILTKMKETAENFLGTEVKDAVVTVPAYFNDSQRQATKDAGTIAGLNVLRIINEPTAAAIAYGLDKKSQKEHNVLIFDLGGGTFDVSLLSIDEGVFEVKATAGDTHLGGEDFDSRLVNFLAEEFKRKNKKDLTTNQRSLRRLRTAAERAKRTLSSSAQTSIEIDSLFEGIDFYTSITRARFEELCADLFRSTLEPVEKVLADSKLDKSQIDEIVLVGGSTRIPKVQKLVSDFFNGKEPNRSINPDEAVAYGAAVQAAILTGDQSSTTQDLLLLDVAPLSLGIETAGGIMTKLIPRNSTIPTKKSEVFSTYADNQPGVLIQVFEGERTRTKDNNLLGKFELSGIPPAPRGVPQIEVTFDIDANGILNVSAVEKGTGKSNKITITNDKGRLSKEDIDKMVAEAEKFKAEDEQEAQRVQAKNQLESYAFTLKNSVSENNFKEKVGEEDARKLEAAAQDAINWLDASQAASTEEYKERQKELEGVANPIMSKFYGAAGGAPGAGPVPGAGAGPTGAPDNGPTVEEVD

Legend:
[1] = molecular target: BD-ScSSA4 (Stressseventy subfamily A 4, bait in pGBKT7) (yeast (prefix Sc; S288C reference genome named for yeast CDSs)) (UniProt P22202); assay: two-hybrid; ScSSA4 in pGBKT7 as bait; screen of a yeast cDNA library, then AD-ScPOM34 and BD-ScSSA4 co-transformed into Y2H Gold yeast, dilution assay on SD/-Leu/-Trp/-His/-Ade plate
[2] = molecular target: ScSSA4 in the BiFC vector pDOE01 (yeast (prefix Sc; S288C reference genome named for yeast CDSs)) (UniProt P22202); assay: split reporter; BiFC: pDOE01-ScSSA4-ScPOM34 agroinfiltrated into N. benthamiana; confocal imaging 45 h after agroinfiltration, YFP channel
[3] = molecular target: ScSSA4-MYC (yeast (prefix Sc; S288C reference genome named for yeast CDSs)) (UniProt P22202); assay: co-IP; ScSSA4-MYC and ScPOM34-FLAG co-expressed in N. benthamiana leaves; extract in IP buffer (150 mM NaCl, 5 mM DTT, 50 mM Tris-HCl pH 7.5, 1% Triton X-100) with anti-MYC antibody and protein A/G magnetic beads, 16 h at 4 °C; blot with anti-FLAG; extract without antibody as control

- binding [1]: binds
B1: AD-ScPOM34 (POre Membrane 34, prey in pGADT7) (protein, UniProt Q12445 1-299)
chain: MKIQAGQLGLDDNDVPGPLPDTDSKPSSQSQNDTPMFKLGNFESPVLKELSRRTVNKEMETQRIMTNVIAFAFWNLLVKFIKFFWNNTHVGRQFCNRLSRIHLYMLTFHTLKKANIIYHTTFSWLNAELLDYLFHLLISLNILFSLWKLLSTVKVSDLNLTDRQKKLLGVDMQSSVDTGLQPQHPHYVSTSKISQMAQNKTHIPQTNLKNHPAYLFKGLETPLKARQREMAEEQTKLQSQSLHTKNVFGTLQRHSGISSTLVSANNDNNSPHTPVTRKGYIPSSKYAYMMNSQSPRGKI

- binding [2]: binds
B2: ScPOM34 in the BiFC vector pDOE01 (protein, UniProt Q12445 1-299)
chain: MKIQAGQLGLDDNDVPGPLPDTDSKPSSQSQNDTPMFKLGNFESPVLKELSRRTVNKEMETQRIMTNVIAFAFWNLLVKFIKFFWNNTHVGRQFCNRLSRIHLYMLTFHTLKKANIIYHTTFSWLNAELLDYLFHLLISLNILFSLWKLLSTVKVSDLNLTDRQKKLLGVDMQSSVDTGLQPQHPHYVSTSKISQMAQNKTHIPQTNLKNHPAYLFKGLETPLKARQREMAEEQTKLQSQSLHTKNVFGTLQRHSGISSTLVSANNDNNSPHTPVTRKGYIPSSKYAYMMNSQSPRGKI

- binding [3]: binds
B3: ScPOM34-FLAG (protein, UniProt Q12445 1-299)
chain: MKIQAGQLGLDDNDVPGPLPDTDSKPSSQSQNDTPMFKLGNFESPVLKELSRRTVNKEMETQRIMTNVIAFAFWNLLVKFIKFFWNNTHVGRQFCNRLSRIHLYMLTFHTLKKANIIYHTTFSWLNAELLDYLFHLLISLNILFSLWKLLSTVKVSDLNLTDRQKKLLGVDMQSSVDTGLQPQHPHYVSTSKISQMAQNKTHIPQTNLKNHPAYLFKGLETPLKARQREMAEEQTKLQSQSLHTKNVFGTLQRHSGISSTLVSANNDNNSPHTPVTRKGYIPSSKYAYMMNSQSPRGKI
